Experimental data: PubChem BioAssay AID504784 (Drosophila RNAi Screening Center, 2011)
Test: 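Search for regulators of lipid droplet storage in oleate-fed fly cells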 (primary screen). Cells: Drosophila Kc167 embryonic cells. Reagents: long dsRNA against Drosophila genes, about 250 ng dsRNA per well. Timing: 4 days. Challenge: cells fed 400 µM oleic acid bound to BSA. Detection: 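Microscope images give a droplet-to-nucleus area ratio, taken as log and converted to a screen-wide B-score; higher values mean greater lipid storage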. Reading the numbers: droplet/nuclear area B-score: higher = more stored lipid (overstorage).
In all, the deposit lists about 17,000 reagents; below is an unselected part of those with a known target gene and a result. 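Each column is one replicate's B-score; the combined score over replicates was not deposited, so single values may mislead.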 The numbers tell different reagents against one gene apart.

target gene	dsRNA no.	droplet/nuclear area B-score, replicate 1	droplet/nuclear area B-score, replicate 2	droplet/nuclear area B-score, replicate 3
CG11672	1	-1.66	0.0517	
Arpc5	1	0.0093	0.0111	
btsz	1	0.0211	1.95	
btsz	2	0.0272	-1.24	
frj	1	-0.927	-1.23	
Sol1	1	1.52	0.3	
Sol1	2	0.42	0.988	
Sol1	3	-0.502	0.148	
Eip74EF	1	-2.45	-3.59	-1.1
Eip74EF	2	3.41	0.73	
CG3071	1	0.738	2.35	
CCT2	1	1.45	0.826	0.183
CG12851	1	0.721	2.18	
Tim8	1	0.298	0.43	-0.0242
Su(fu)	1	0.00892	0.156	
Nepl9	1	1.58	-0.382	
mus302	1	1.31	0.422	
stumps	1	0.892	0.439	
stumps	2	-0.746	-5.47	
CG8152	1	0.143	0.807	
CG5262	1	0.0419	-4.24	-0.383
neur	1	-0.0942	-0.818	
puf	1	5.9	3.61	
puf	2	0.0388	0.85	
Atg6	1	-1.65	-2.54	
Hsp23	1	0.628	1.11	
CG33322	1	3.21	0.263	
CG7607	1	0.0888	-0.13	
CG15653	1	0.0339	0.624	
Jon25Biii	1	0.423	-2.97	
CG1387	1	-0.574	-1.03	-0.233
CG33229	1	-0.268	-0.763	
Ccp84Ae	1	-1.02	-0.247	-1.11
mtd	1	-2.75	-0.998	
mtd	2	-1.69	-0.492	
mtd	3	2.51	-0.524	
aly	1	1.21	-0.0764	
aly	2	-0.323	0.0171	
Bruce	1	-0.366	-0.0482	
Ugt303B1	1	0.0287	-1.37	
CG8298	1	0.242	1.51	
Topors	1	0.238	-0.226	
Fpgs1	1	-0.0271	-0.238	-0.524
Spn28B	1	-1.08	-2.14	0.118
Cks85A	1	0.0478	-0.636	
CG5787	1	-2.46	-1.91	
ems	1	0.034	0.458	
CG3092	1	0.838	0.703	
Dgat2	1	1.18	-0.309	
CR31846 (retired record)	1	-0.416	-0.00605	
CG15099	1	-1.06	-1.84	
CG14561	1	-1.98	-2.48	
CG10713	1	3.99	2.53	
CG1172	1	-1.8	0.208	
CG1172	2	-0.359	-0.56	
foxo	1	-0.31	0.0914	
foxo	2	0.702	-0.522	

9 consecutive entries from above, quoted:
target gene	dsRNA no.	droplet/nuclear area B-score, replicate 1	droplet/nuclear area B-score, replicate 2	droplet/nuclear area B-score, replicate 3
CG5262	1	0.0419	-4.24	-0.383
neur	1	-0.0942	-0.818	
puf	1	5.9	3.61	
puf	2	0.0388	0.85	
Atg6	1	-1.65	-2.54	
Hsp23	1	0.628	1.11	
CG33322	1	3.21	0.263	
CG7607	1	0.0888	-0.13	
CG15653	1	0.0339	0.624	
